# Laboratory results published in article PMC6476135.
# By UniProt entry, the sequences of proteins in these tests, tags left out. Where a name states a change or a piece, a line headed by the entry shows the natural chain unless it says otherwise. Residues count along the entry.
# UniProt Q99MB1, residues 26-905: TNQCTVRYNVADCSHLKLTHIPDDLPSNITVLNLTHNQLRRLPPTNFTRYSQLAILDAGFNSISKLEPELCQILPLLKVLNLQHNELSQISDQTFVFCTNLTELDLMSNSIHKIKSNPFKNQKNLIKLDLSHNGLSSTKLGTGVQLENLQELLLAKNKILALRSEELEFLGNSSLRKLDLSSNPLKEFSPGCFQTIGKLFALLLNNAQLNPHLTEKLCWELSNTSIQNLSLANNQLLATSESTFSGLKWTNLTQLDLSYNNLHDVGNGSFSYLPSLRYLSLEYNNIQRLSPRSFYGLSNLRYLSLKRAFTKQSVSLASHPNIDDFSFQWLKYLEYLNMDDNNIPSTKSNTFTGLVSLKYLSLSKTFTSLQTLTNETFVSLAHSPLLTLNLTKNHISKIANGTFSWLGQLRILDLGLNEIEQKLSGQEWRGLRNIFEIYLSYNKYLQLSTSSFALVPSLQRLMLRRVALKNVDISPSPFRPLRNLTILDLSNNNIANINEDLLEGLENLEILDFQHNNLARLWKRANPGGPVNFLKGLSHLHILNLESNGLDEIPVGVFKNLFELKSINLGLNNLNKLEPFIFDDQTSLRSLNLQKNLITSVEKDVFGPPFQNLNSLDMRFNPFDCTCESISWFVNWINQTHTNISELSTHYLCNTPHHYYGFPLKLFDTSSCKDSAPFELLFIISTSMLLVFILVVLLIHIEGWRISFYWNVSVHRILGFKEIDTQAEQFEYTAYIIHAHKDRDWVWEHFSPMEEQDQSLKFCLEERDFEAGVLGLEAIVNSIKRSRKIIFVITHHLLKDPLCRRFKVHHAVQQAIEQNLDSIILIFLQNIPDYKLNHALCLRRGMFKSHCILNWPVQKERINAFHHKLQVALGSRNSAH
# UniProt Q99LI8: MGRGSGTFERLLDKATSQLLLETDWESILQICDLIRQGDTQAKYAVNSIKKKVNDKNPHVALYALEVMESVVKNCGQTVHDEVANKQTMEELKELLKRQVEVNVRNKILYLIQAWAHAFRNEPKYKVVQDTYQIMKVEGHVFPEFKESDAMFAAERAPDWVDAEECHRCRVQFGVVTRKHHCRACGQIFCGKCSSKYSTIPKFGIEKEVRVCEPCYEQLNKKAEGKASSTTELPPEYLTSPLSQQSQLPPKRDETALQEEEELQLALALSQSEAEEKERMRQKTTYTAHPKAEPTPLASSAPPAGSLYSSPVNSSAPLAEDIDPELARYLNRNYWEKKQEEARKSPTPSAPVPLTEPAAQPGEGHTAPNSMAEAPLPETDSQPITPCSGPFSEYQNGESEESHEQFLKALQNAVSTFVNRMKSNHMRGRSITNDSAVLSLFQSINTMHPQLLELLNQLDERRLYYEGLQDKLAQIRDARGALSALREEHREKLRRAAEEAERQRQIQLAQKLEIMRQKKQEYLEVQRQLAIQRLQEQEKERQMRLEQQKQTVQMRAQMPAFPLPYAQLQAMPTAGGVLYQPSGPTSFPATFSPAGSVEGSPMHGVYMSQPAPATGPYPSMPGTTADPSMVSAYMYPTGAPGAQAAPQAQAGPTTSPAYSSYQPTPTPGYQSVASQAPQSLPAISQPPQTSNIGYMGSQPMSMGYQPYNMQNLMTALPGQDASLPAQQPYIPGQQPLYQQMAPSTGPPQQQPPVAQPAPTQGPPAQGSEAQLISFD
# UniProt P70297: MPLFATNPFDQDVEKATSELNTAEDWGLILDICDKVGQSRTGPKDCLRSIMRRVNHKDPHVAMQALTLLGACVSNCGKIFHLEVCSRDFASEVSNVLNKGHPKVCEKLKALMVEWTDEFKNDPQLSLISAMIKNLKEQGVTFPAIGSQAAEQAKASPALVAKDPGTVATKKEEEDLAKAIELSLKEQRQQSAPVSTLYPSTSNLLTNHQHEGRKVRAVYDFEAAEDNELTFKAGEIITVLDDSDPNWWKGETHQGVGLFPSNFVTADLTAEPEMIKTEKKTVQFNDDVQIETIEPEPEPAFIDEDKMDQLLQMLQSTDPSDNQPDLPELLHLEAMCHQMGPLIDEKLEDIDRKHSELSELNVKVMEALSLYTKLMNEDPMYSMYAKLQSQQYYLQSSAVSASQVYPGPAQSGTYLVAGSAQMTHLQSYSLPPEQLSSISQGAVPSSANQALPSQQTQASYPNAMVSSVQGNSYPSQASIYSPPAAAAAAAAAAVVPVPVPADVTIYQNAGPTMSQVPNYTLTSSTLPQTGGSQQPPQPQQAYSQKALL
# Results are given in words; binding and its absence hold for the method and conditions named. In cells and extracts the contact can be indirect. Some results given as binding are weak or reduced against the parent protein; the word gives no strength.
# Experiments:
# [1] = target: Toll-like receptor 3 (TLR3) (mouse (endogenous in C8-D1A)) (UniProt Q99MB1); experiment: co-IP; anti-TLR3 immunoprecipitation (Catch and Release v2.0) from lysates of C8-D1A astrocytes untreated or stimulated with poly(I:C) (for STAM also poly(I:C)/LyoVec) for 5, 8, 12, 15, 30 min; blots for Hrs and STAM
# [2] = target: Toll-like receptor 3 (TLR3) (mouse (endogenous in C8-D1A)) (UniProt Q99MB1); experiment: co-IP; anti-TLR3 immunoprecipitation (Catch and Release v2.0) from lysates of C8-D1A astrocytes stimulated with poly(I:C)/LyoVec for 5, 8, 12, 15, 30 min; blot for Hrs
# [3] = target: hepatocyte growth factor-regulated tyrosine kinase substrate (Hrs) (mouse (endogenous in C8-D1A)) (UniProt Q99LI8); experiment: co-IP; anti-STAM and anti-Hrs immunoprecipitations (Catch and Release v2.0) from lysates of C8-D1A astrocytes untreated or stimulated with poly(I:C) for 5, 8, 12, 15 min; blots for Hrs and STAM
binding [1],binding [2],binding [3],Substance
binds,binds weakly,–,hepatocyte growth factor-regulated tyrosine kinase substrate (Hrs) (from UniProt Q99LI8 1-775)
no binding,–,binds,signal transducing adaptor molecule (STAM) (from UniProt P70297 1-548)
